Source: article PMC7819943, “Rice protein-binding microarrays: a tool to detect cis-acting elements near promoter regions in rice”
Some of the results follow.

Chains of the proteins cited; added tags and fusions are not shown.
UniProt Q0JBA9, entry or part of it: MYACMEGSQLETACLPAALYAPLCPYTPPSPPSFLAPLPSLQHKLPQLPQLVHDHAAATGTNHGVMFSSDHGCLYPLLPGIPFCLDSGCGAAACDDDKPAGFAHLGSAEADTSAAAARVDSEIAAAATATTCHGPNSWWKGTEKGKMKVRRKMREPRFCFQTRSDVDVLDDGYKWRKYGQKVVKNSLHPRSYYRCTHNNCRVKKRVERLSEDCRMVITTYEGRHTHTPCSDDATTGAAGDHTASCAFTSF

biological target: OsWRKY34 (Oryza sativa, UniProt Q0JBA9 1-250); assay: protein-binding microarray (RPBM); PBS, 2% BSA, 51.3 ng/ul salmon testes DNA, 50 uM zinc acetate, 200 nM TF, 25 C, 1 h; high values mean tight binding; conditions: protein: recombinant; tags: N-terminal polyhistidine and DsRed monomer fusion (pET32a); label: CyDye5-dUTP incorporated in the synthesized complementary strand; 3' TTTTT single-stranded linker to array surface; dsDNA, one strand shown
Outline: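 For the binding signal, per-feature fluorescence intensity was read in arbitrary units on an Axon 4000B scanner. Before scanning, a 2% BSA-blocked custom Agilent array made double-stranded with Cy5-dUTP was washed after 1 h at 25 °C with 200 nM protein and 50 µM zinc acetate. The proteins were Ni–NTA-purified transcription factors with N-terminal polyhistidine and DsRed fusions, expressed in E. coli BL21-CodonPlus.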

Sequence | binding signal
GTGTGTGAGGTGGGGAATTGGGAGCAGTTGATCACCGGGGCGGAGTCACCTAGTGCAG | 8970 fluorescence intensity (a.u.)
AAAATAGGCCAATAGGGTGTTGAGAGAAAAGGAGATATATCGGAGTCACCTAGTGCAG | 17500 fluorescence intensity (a.u.)
ATGGTGGGTATTTCTCTTCAGGCCATTCCTGCAGAGCAAACGGAGTCACCTAGTGCAG | 8460 fluorescence intensity (a.u.)
GTTTTCGGGTTAAGGGGTATGAATTAGATTCGGCGTACAACGGAGTCACCTAGTGCAG | 11500 fluorescence intensity (a.u.)
AGAAGGGAAGGGGAGGGGAGGGCGGGACGCCGGCCGGAGCCGGAGTCACCTAGTGCAG | 10200 fluorescence intensity (a.u.)
TTTTCTTGTGTGTTCCCTACCATCAATTTTTTTCTAATTACGGAGTCACCTAGTGCAG | 8400 fluorescence intensity (a.u.)
ACGTCCTACAAAGTGTGGTAGTTTCACTCTGTTTATTTTTCGGAGTCACCTAGTGCAG | 8330 fluorescence intensity (a.u.)
TCGTGCATGCTGCATACTACTCTGTGCTACAGTACATATACGGAGTCACCTAGTGCAG | 8200 fluorescence intensity (a.u.)
AGCAGGGGAGGTTGGGCTCGTTGTACTTCGGCGGGAGCGGCGGAGTCACCTAGTGCAG | 8120 fluorescence intensity (a.u.)
AAAGAGCCCGGATATAGCGCCTTCGTTCTTCGTCGGGTCACGGAGTCACCTAGTGCAG | 9640 fluorescence intensity (a.u.)
AACCACCACCACCGCCTCCGCTCTATCAACCCTCGCTCCGCGGAGTCACCTAGTGCAG | 10900 fluorescence intensity (a.u.)
TTTTGGATTTTGTTTCATTTTTTTTACATGCATTGGATTACGGAGTCACCTAGTGCAG | 8120 fluorescence intensity (a.u.)
TGCTTTCACTCTGTTGGAATTCTCAAGGCTGTTATTTTCACGGAGTCACCTAGTGCAG | 10200 fluorescence intensity (a.u.)
GTGTCTCCTCTCCTCTTCCTAACCTTCTCACTGATTAACACGGAGTCACCTAGTGCAG | 13100 fluorescence intensity (a.u.)
AGTTGTCGTCGCTTCAACCGCGTTGCCGCCATCACAGTCACGGAGTCACCTAGTGCAG | 8520 fluorescence intensity (a.u.)
GACGACTGCGAGCCTCTCCTTCCCTTCCACCTTTTTTCTTCGGAGTCACCTAGTGCAG | 11300 fluorescence intensity (a.u.)
CACCCTTATTTTGTTGGGATTCTCCTGATCTATTTTTAGACGGAGTCACCTAGTGCAG | 8470 fluorescence intensity (a.u.)
GGACGCCGGATATCTGGTTTTGCGGTTTGAGGATGTTTTTCGGAGTCACCTAGTGCAG | 9530 fluorescence intensity (a.u.)
AGTGCTGGCTTTGATGGTATATATGGTTTGCGCCGACTCACGGAGTCACCTAGTGCAG | 10400 fluorescence intensity (a.u.)
GGGGTTAGTTGTCCGTTTTGCATAGTTGGGGATAAAAAATCGGAGTCACCTAGTGCAG | 18500 fluorescence intensity (a.u.)
AACTTTTAACTTTTCCATCACATCAAAACTTTCCTACACACGGAGTCACCTAGTGCAG | 8380 fluorescence intensity (a.u.)

Three entries drawn at random from those above, as already listed:
Sequence | binding signal
GGACGCCGGATATCTGGTTTTGCGGTTTGAGGATGTTTTTCGGAGTCACCTAGTGCAG | 9530 fluorescence intensity (a.u.)
AGCAGGGGAGGTTGGGCTCGTTGTACTTCGGCGGGAGCGGCGGAGTCACCTAGTGCAG | 8120 fluorescence intensity (a.u.)
CACCCTTATTTTGTTGGGATTCTCCTGATCTATTTTTAGACGGAGTCACCTAGTGCAG | 8470 fluorescence intensity (a.u.)

(next part)

Sequence | binding signal
CTTCCCACTTTAGTTGTTTGCGAATTATAAGGGAGCACTTCGGAGTCACCTAGTGCAG | 8620 fluorescence intensity (a.u.)
TTTAAACTCTCTTGTTCTAGCTGTCCTCTATCGATTGTTCCGGAGTCACCTAGTGCAG | 10800 fluorescence intensity (a.u.)
TTCTCCATTTTTTCATGGTTGACTCTAATCTTCATGACTACGGAGTCACCTAGTGCAG | 8280 fluorescence intensity (a.u.)
CTGCATGTCTACGCTCCATTGTAGTCGCCATGGTTACATTCGGAGTCACCTAGTGCAG | 10900 fluorescence intensity (a.u.)
TGTACTCATATTGTTTTTCTGTTTCCAGTGAAGTTTTATCCGGAGTCACCTAGTGCAG | 9150 fluorescence intensity (a.u.)
GTCAATGTATGCCCACCAACTCCCACATAACCGCAAATTTCGGAGTCACCTAGTGCAG | 8450 fluorescence intensity (a.u.)
ATATCACAATGATTTTCGGCCCTTACCGTTCACAAAAACCCGGAGTCACCTAGTGCAG | 9140 fluorescence intensity (a.u.)
TACGGTCGTCGTCGTCGCTGCCGGCAAGGTGAGGGGAGGGCGGAGTCACCTAGTGCAG | 8950 fluorescence intensity (a.u.)
ATATGCTAATAGCTCGTCCTGTTTTAAGTAACCATCGTATCGGAGTCACCTAGTGCAG | 8720 fluorescence intensity (a.u.)
CATTGTGTGTTCCCTCAGTGTACTACGAGTAGCGAAATAACGGAGTCACCTAGTGCAG | 8120 fluorescence intensity (a.u.)
CTCATGTATAGATATATCTATCTCCTAACTCAACATTTCCCGGAGTCACCTAGTGCAG | 9160 fluorescence intensity (a.u.)
TCTGAATGGCTGTTTCGTTTGATAATCGATGCCCCTAGCTCGGAGTCACCTAGTGCAG | 9020 fluorescence intensity (a.u.)
CCGCCGCATTCTTGTCACCTTGTTGATTCTTCATTCTTGACGGAGTCACCTAGTGCAG | 11900 fluorescence intensity (a.u.)
GTAGCAATTTATGAAAAGTTTATGGACCGATGCCCCTTTTCGGAGTCACCTAGTGCAG | 8210 fluorescence intensity (a.u.)
GCTCACCAACAAGCTTCCTCATGTACTCATCCGTCAACTCCGGAGTCACCTAGTGCAG | 9840 fluorescence intensity (a.u.)
TTGAATCCTCATCATCATCGCCTTAATTGCATCGGTTAATCGGAGTCACCTAGTGCAG | 9580 fluorescence intensity (a.u.)
GGCACTTTTACAATTCACACGCGCGAATATTTTTTTTCCTCGGAGTCACCTAGTGCAG | 8990 fluorescence intensity (a.u.)
CCTCTTGTTTTCCGTTTGTATCTCATTATCTGTATCTCTCCGGAGTCACCTAGTGCAG | 12000 fluorescence intensity (a.u.)
GGCGCCATCTTTTCCGCATTCTTTCCATCCGGATTCCGGCCGGAGTCACCTAGTGCAG | 9600 fluorescence intensity (a.u.)
TGGTTTTCCAAGATGCCTTGCGTTGTTGTTTACTCATTGTCGGAGTCACCTAGTGCAG | 8820 fluorescence intensity (a.u.)
TTCTTACTAGCCCGTGTTGCTTTTTCCAGGTCTTGTCGTTCGGAGTCACCTAGTGCAG | 14000 fluorescence intensity (a.u.)
